This note sets out measurements from PMC5098195.

Sequences of proteins named here, by UniProt entry; tags and fusion partners are left off.
UniProt P42582: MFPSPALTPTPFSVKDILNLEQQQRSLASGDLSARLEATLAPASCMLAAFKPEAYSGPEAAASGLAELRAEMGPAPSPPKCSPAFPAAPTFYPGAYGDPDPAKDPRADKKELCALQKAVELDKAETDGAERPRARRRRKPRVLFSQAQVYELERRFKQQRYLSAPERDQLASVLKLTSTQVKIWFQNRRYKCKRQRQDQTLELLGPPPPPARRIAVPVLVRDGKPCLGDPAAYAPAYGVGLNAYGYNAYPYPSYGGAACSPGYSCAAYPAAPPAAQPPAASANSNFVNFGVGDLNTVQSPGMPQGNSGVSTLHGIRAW
UniProt O35767: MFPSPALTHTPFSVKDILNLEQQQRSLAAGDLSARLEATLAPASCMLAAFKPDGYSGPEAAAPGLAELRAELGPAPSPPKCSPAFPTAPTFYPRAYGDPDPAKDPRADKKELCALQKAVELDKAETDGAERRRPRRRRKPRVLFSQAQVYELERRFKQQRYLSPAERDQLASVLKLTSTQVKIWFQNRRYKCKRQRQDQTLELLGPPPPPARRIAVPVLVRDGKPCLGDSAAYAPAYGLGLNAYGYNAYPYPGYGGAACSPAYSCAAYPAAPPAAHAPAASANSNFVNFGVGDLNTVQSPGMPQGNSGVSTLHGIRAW
UniProt Q09472: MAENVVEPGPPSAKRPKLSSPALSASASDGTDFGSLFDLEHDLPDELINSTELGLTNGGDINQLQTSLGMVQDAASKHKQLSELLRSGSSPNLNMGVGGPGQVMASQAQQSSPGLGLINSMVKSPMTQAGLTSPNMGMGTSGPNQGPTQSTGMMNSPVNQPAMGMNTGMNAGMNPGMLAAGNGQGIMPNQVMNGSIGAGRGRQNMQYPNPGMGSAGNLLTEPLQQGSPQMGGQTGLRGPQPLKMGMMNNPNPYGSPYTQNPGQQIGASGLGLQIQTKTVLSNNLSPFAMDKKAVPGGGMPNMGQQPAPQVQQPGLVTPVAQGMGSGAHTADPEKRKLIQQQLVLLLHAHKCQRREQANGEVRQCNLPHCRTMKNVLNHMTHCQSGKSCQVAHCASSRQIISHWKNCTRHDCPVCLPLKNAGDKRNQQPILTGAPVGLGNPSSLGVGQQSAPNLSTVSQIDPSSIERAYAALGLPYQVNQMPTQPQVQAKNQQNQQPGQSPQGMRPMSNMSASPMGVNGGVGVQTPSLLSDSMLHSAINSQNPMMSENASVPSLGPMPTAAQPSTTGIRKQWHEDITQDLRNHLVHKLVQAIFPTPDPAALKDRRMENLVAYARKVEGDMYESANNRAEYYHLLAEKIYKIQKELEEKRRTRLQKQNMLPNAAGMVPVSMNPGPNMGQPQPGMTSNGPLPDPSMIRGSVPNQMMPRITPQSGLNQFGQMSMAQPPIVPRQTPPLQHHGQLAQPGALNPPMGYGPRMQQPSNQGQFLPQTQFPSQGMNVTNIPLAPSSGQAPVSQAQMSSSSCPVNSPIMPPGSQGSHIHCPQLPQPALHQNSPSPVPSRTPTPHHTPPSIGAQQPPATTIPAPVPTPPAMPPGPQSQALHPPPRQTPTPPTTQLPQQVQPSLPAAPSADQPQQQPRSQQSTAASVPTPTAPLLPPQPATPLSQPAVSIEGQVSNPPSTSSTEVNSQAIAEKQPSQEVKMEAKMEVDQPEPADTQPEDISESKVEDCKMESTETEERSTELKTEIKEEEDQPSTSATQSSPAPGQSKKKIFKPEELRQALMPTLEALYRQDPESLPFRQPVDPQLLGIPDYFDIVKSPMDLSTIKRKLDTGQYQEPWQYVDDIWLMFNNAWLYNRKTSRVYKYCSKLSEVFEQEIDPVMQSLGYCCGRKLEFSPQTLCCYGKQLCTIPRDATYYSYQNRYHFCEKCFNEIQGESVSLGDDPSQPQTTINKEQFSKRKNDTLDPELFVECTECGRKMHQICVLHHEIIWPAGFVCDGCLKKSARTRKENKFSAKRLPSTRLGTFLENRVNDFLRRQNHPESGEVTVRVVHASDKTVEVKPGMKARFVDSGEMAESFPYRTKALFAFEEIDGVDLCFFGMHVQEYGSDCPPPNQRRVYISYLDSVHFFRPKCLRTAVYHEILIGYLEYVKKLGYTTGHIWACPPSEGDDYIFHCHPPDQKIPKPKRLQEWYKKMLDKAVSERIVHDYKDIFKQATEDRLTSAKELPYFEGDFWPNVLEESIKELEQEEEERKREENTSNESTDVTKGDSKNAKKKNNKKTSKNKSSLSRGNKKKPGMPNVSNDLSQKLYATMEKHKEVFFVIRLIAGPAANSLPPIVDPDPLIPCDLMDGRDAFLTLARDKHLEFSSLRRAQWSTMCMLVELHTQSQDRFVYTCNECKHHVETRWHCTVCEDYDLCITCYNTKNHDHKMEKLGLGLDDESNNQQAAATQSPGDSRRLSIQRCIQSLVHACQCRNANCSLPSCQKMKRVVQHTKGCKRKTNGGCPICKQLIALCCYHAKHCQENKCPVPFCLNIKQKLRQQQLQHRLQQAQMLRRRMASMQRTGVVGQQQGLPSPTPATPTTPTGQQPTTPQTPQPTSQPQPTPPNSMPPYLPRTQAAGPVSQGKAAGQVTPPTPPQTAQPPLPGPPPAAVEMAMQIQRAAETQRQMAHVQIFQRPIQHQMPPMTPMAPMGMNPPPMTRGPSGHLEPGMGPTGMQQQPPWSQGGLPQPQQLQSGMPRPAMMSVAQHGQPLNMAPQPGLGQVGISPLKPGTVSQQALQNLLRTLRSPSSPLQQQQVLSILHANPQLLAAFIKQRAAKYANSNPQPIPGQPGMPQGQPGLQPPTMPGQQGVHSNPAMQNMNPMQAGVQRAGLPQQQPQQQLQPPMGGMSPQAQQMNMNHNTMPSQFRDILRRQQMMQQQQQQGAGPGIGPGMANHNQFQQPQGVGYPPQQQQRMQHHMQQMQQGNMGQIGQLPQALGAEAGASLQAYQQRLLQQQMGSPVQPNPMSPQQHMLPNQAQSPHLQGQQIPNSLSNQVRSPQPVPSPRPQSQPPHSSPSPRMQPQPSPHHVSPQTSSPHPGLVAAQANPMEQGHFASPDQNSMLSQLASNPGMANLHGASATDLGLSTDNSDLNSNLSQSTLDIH

These are yes or no findings as the source states them, for the method shown. Binding seen in cells or lysates may run through a third protein. Some binding calls cover weakened binding; strength is not graded here.

Test [1] has as its target Myc-tagged Nkx2.5 (mouse) (UniProt P42582). The test is described as follows: co-IP; tagged proteins co-transfected into HEK293A cells for 48 hours; lysates immunoprecipitated with anti-Myc or anti-HA antibodies, western blot. A general note: Immunoblotting shows a protein as a band on a membrane.
Test [2] has as its target Nkx2.5 (plasmid of Figure 7, tag not told) (mouse) (UniProt P42582). Kind of test: co-IP; Nkx2.5 and SRF or TBX5 plasmids co-transfected with/without SIRT1 into HEK293A cells for 48 hours; immunoprecipitation and western blot.
For test [3], the target named is endogenous Nkx2.5 of neonatal rat cardiomyocytes (rat (endogenous in neonatal rat cardiomyocytes)) (UniProt O35767). Kind of test: co-IP; endogenous proteins; primary neonatal rat cardiomyocytes lysed, immunoprecipitation with anti-SIRT1 or anti-Nkx2.5 antibodies or control IgG, western blot.

Turning to “HA-p300 (from UniProt Q09472 1-2414) (enzyme)”, the binding entry in test [1] is on record as “binds”.

B1: TBX5 (protein, UniProt Q99593 1-518)
chain: MADADEGFGLAHTPLEPDAKDLPCDSKPESALGAPSKSPSSPQAAFTQQGMEGIKVFLHERELWLKFHEVGTEMIITKAGRRMFPSYKVKVTGLNPKTKYILLMDIVPADDHRYKFADNKWSVTGKAEPAMPGRLYVHPDSPATGAHWMRQLVSFQKLKLTNNHLDPFGHIILNSMHKYQPRLHIVKADENNGFGSKNTAFCTHVFPETAFIAVTSYQNHKITQLKIENNPFAKGFRGSDDMELHRMSRMQSKEYPVVPRSTVRQKVASNHSPFSSESRALSTSSNLGSQYQCENGVSGPSQDLLPPPNPYPLPQEHSQIYHCTKRKEEECSTTDHPYKKPYMETSPSEEDSFYRSSYPQQQGLGASYRTESAQRQACMYASSAPPSEPVPSLEDISCNTWPSMPSYSSCTVTTVQPMDRLPYQHFSAHFTSGPLVPRLAGMANHGSPQLGEGMFQHQTSVAHQPVVRQCGPQTGLQSPGTLQPPEFLYSHGVPRTLSPHQYHSVHGVGMVPEWSDNS
Take B1: in test [2], the binding result is “binds”.

B2: SRF (protein, UniProt P11831 1-508)
chain: MLPTQAGAAAALGRGSALGGSLNRTPTGRPGGGGGTRGANGGRVPGNGAGLGPGRLEREAAAAAATTPAPTAGALYSGSEGDSESGEEEELGAERRGLKRSLSEMEIGMVVGGPEASAAATGGYGPVSGAVSGAKPGKKTRGRVKIKMEFIDNKLRRYTTFSKRKTGIMKKAYELSTLTGTQVLLLVASETGHVYTFATRKLQPMITSETGKALIQTCLNSPDSPPRSDPTTDQRMSATGFEETDLTYQVSESDSSGETKDTLKPAFTVTNLPGTTSTIQTAPSTSTTMQVSSGPSFPITNYLAPVSASVSPSAVSSANGTVLKSTGSGPVSSGGLMQLPTSFTLMPGGAVAQQVPVQAIQVHQAPQQASPSRDSSTDLTQTSSSGTVTLPATIMTSSVPTTVGGHMMYPSPHAVMYAPTSGLGDGSLTVLNAFSQAPSTMQVSHSQVQEPGGVPQVFLTASSGTVQIPVSAVQLHQMAVIGQQAGSSSNLTELQVVNLDTAHSTKSE
B2: the binding entry in test [2] is on record as “binds”.

B3: endogenous SIRT1 of neonatal rat cardiomyocytes (enzyme, UniProt A0A0G2JZ79 1-741)
chain: MADEAALALQAGGSPSAAAAMEAASQPADEPLRKRPRRDGPGLGRSPGEPSAAAAAAAAAAGCEAASAAAPAALWREAAGAAAASAEREAPATAAAGDGDNGPGLRREPRAADDFDDDEGEEEDEAAAAAAAAIGYRDNLLLADEIITNGFHSCESDDDDRASHASSSDWTPRPRIGPYTFVQQHLMIGTDPRTILKDLLPETIPPPELDDMTLWQIVINILSEPPKRKKRKDINTIEDAVKLLQECKKIIVLTGAGVSVSCGIPDFRSRDGIYARLAVDFPDLPDPQAMFDIEYFRKDPRPFFKFAKEIYPGQFQPSLCHKFIALSDKEGKLLRNYTQNIDTLEQVAGIQRIIQCHGSFATASCLICKYKVDCEAVRGDIFNQVVPRCPRCPADEPLAIMKPEIVFFGENLPEQFHRAMKYDKDEVDLLIVIGSSLKVRPVALIPSSIPHEVPQILINREPLPHLHFDVELLGDCDVIINELCHRLGGEYAKLCCNPVKLSEITEKPPRTQKELVHLSELPPTPLHISEDSSSPERTVPQDSSVIATLVDQTIKNKVDDLEVSEPKSCVEEKSQEVQTYRNVESINVENPDFKAVGSSTGDKNERTSVAETVRKCWPNRLAKEQISKRLDGNQYLFVPPNRYIFHGAEVYSDSEDDALSSSSCGSNSDSGTCQSPSLEEPLEDESEIEEFYNGLEDDADRPECAGGSGADGGDQEAVNEAIAMKQELTDVNCTPDKSEHY
Take B3: the binding result in test [3] is given as “binds”.
